Results as given in patent US12648948B2, “Methods and compositions for treating cancer” (UNITED STATES GOVERNMENT AS REPRESENTED BY THE DEPARTMENT …, priority 2017, dated 2026).
At least one structure is not confirmed: it was looked up by name or label, or the drawing left a doubt.

Legend:
[1] = test system: U87EGFRwt and U87EGFRvIII cells; test: AlamarBlue cell viability assay, established GBM cell lines; type: cell-based, human; details: 72 h
Protocol: (§1) Cell viability assay was conducted using AlamarBlue cell viability assay kit (ThermoFisher) following manufacturer's protocol. Cells were cultured in Corning 96-well black plates with clear bottom (5000 cells/well). Drugs were added to cells for 72 hour following detection using POLARstar Omega Microplate Reader (excitation at 544 nm and emission at 590 nm) (BMG LABTECH, Germany).

[2] = test system: GBM9 cells; test: Annexin-FACS assay and Caspase 3/7 activation; type: cell-based, human; details: 72 h
Protocol: Annexin assay was performed by using Annexin—V-FLUOS Staining kit (Roche applied Science). Cells (1×10^6) were plated in 6 well plates and treated with drugs or vehicle alone. After 72 hours cells were trypsinized and washed 2 times with 1×PBS. The cells were incubated for 15 minutes at room temperature with Propidium Iodide and Annexin—V-FLUOS labeling solution in incubation buffer. Annexin and/or PI positive cells were detected by Flow Cytometry.
Caspase activity in the supernatant was measured using the Caspase-Glo 3/7 Assay (Promega, G8091) following manufacturer's instructions. Briefly, 72 hours after treatments, cells were washed by cold PBS and total cell lysates were prepared. 50 μg of total protein per sample was added per well of a 96 well plate and was incubated with 100 μl Caspase 3/7 reagent for 30 minutes. The luminescence of each sample was measured using a luminometer. All experiments included at least 3 replicates per group and were repeated 3 times.

[3] = test system: GAS6; test: GAS6 expression (real time PCR, ELISA, Western blot); type: cell-based, human; details: GBM9 neurospheres, SP600125 1 μM, 24 h
Protocol: Total RNA was isolated by TRIzol Reagent (Ambion). cDNA Reverse Transcription were performed by using High-Capacity cDNA Reverse Transcription Kit (Applied Biosystems). […] Each PCR was carried out in triplicate in a 20 μl volume using SYBR Green Master Mix (Applied Biosystems) for 15 minutes at 95° C. for initial denaturing, followed by 40 cycles of 95° C. for 15 s and 60° C. for 60 s in ViiA 7 Real-Time PCR System (Applied Biosystems). At least two independent experiments were done. Values for each gene were normalized to expression levels of GAPDH mRNA. The following primers were used: TNF, [NT] ID NO:3) and [NT] ID NO:4); […] GAPDH, [NT] ID NO:7) and [NT] ID NO:8). […] After 48 hours, supernatant and cell lysates were collected. Supernatant medium was concentrated 5-10-fold with Pierce protein concentrator (ThermoFisher). TNF protein concentration in supernatant, cell lysates and tissue extracts was determined by ELISA using a commercial TNF detection kit (ThermoFisher) according to manufacturer's instructions. Additionally, GAS6 protein concentration in supernatant was measured by ELISA kit (LifeSpan BioSciences).

[4] = test system: GBM9 and GBM39 neurospheres; test: AlamarBlue cell viability assay, patient derived GBM neurospheres; type: cell-based, human; details: 72 h
Protocol: as §1

[5] = test system: GBM9 cells; test: Cell proliferation by cell counting (trypan blue dye exclusion); type: cell-based, human; details: 72 hours
Protocol: FIG. 15A GBM9 cells were plated in 6 well plated and treated with drugs as indicated. Cell proliferation was measured through cell counting using the trypan blue dye exclusion test. […] Erlotinib vs erlotinib+SP: P=0.0016, t=7.60, d.f.=4; Erlotinib vs erlotinib+U: P=0.0012, t=8.24, d.f.=4.

[6] = test system: GBM9 subcutaneous tumors; test: Subcutaneous GBM9 xenograft tumor growth; type: in vivo, athymic nude mice; details: erlotinib 50 mg/kg oral gavage, SP600125 40 mg/kg i.p., thalidomide 150 mg/kg i.p., daily for 10 days
Protocol: 4 to 6 weeks old female athymic nude mice were purchased from Charles River Laboratories. The mice were housed in plastic cages (4-5 mice per cage) in a room with a 12 hour day-night cycle. 1×10^6 GBM9 cells were subcutaneously injected into the right flank of each nude mouse. […] The mice were randomly divided into control and treatment groups, mice were treated with drugs using the indicated doses. For combination treatment, both drugs were given concurrently for indicated periods. Tumor dimensions were measured by caliper every two days and tumor volumes calculated by the formula: volume=length×width×width/2. Mice were sacrificed when tumors reached over […] or 24 days from the first day of treatment.

[7] = test system: GBM; details: human, in vivo; cited from earlier work
[8] = test system: Akt, STAT3; test: Western blot, Akt and STAT3 activation in glioma cells; type: cell-based, human; details: erlotinib 10 μM or afatinib 10 μM
Protocol: Western blot analysis was performed according to standard protocols.

With Oc1c2ccccc2c2c3c(cccc13)N=N2 [SP600125] the “Cell viability, inhibitor combined with erlotinib” value [1] was “a combined inhibition of EGFR with ERK or JNK leads to a significant cell death”, the “Cell viability, inhibitor alone” value ([1]; without erlotinib) was “also resistant to EGFR inhibition or JNK inhibition or ERK inhibition alone” and the “Number of viable (unstained) cells, inhibitor combined with erlotinib” value [2] was “decreases the number of viable cells”. For the same compound, the “Erlotinib induced GAS6 mRNA increase in presence of JNK inhibitor” value [3] was “this increase is blocked”, the “Cell viability, inhibitor combined with erlotinib” value ([4]; erlotinib 100 nM, SP600125, U0126, R428, thalidomide 1 μM, Enbrel 100 nM) was “significant cell death” and the “Cell viability, inhibitor alone” value ([4]; without erlotinib, 1 μM) was “resistant to JNK or ERK inhibition alone”. The “Cell growth / cell numbers, combination with erlotinib” value [5] was “significantly reduces cell growth after 72 hours” and the “Growth of subcutaneous tumors” value [6] was “no significant effect on the growth of tumors”.

For Cn1nnc2c(C(N)=O)ncn2c1=O [Temozolomide], the “Clinical efficacy in GBM patients” value [7] is given as “modest increase in overall survival of patients”.

In the case of CN(C)C/C=C/C(=O)Nc1cc2c(Nc3ccc(F)c(Cl)c3)ncnc2cc1O[C@H]1CCOC1 [afatinib], the “STAT3 and Akt activation at higher concentration” value [8] is reported as “pSTAT3 and pAKT decrease”.
